Reference: patent US8871728B2, “Non-peptide macrocyclic histone deacetylese (HDAC) inhibitors and methods of making and using thereof” (Georgia Tech Research Corporation, priority 2007, dated 2014)
≈ marks a conversion by molar mass, not a printed value.

What was measured:
Format in all cases: cell-based
[1] = Cytotoxicity, Neutral Red assay; settings: monkey, Vero cells (monkey kidney fibroblasts)
Experimental: Plasmodium growth inhibition was determined by a parasite lactate dehydrogenase assay using Malstat reagent. Inhibition of viability of the promastigote stage of L. donovani was determined using standard Alamar blue assay, modified to a fluorometric assay. […] To determine selective toxicity index, all compounds were tested against nontransformed mammalian cell lines namely, monkey kidney fibroblasts (Vero) and murine macrophages (J774.1) using Neutral Red assay. Plasmodium growth inhibition was determined by a parasite lactate dehydrogenase assay using Malstat reagent. Inhibition of viability of the promastigote stage of L. donovani was determined using standard Alamar blue assay, modified to a fluorometric assay. Amphotericin B and pentamidine, standard antileishmanial agents; chloroquine and […], standard antimalarial; and suberoylanilide hydroxamic acid (SAHA), standard HDACi were all used as positive controls. To determine selective toxicity index, all compounds were tested against nontransformed mammalian cell lines namely, monkey kidney fibroblasts (Vero) and murine macrophages (J774.1) using Neutral Red assay.

[2] = system: Plasmodium falciparum (W2 clone), chloroquine-resistant; experiment: Plasmodium growth inhibition, parasite lactate dehydrogenase assay (Malstat); settings: W2, read-out: Plasmodium falciparum (W2 clone) IC50 (μg/ml)
Experimental: (§1) The compounds described herein were also evaluated for parasitic activity against Plasmodium falciparum and Leismania donovani. P. falciparum and L. donovani are the causative parasites of malaria and leishmaniasis, two human diseases which constitute a serious threat to public health in tropical and sub-tropical countries. Antimalarial activity was evaluated in vitro using chloroquine-sensitive (D6, Sierra Leone) and chloroquine-resistant (W2, Indochina) strains of P. falciparum. Antileishmanial activity was evaluated in vitro against the promastigote stage of L. donovani.
(§2) Plasmodium growth inhibition was determined by a parasite lactate dehydrogenase assay using Malstat reagent. Inhibition of viability of the promastigote stage of L. donovani was determined using standard Alamar blue assay, modified to a fluorometric assay. […]
(§3) Macrocyclic histone deacetylase inhibitors were evaluated for parasitic activity against Plasmodium falciparum and Leismania donovani. […] Antimalarial activity was evaluated in vitro using chloroquine-sensitive (D6, Sierra Leone) and chloroquine-resistant (W2, Indochina) strains of P. falciparum. Antileishmanial activity was evaluated in vitro against the promastigote stage of L. donovani.
(§4) Plasmodium growth inhibition was determined by a parasite lactate dehydrogenase assay using Malstat reagent. […]

[3] = system: Plasmodium falciparum (D6 clone), chloroquine-sensitive; experiment: as above; settings: D6, read-out: Plasmodium falciparum (D6 clone) IC50 (μg/ml)
Experimental: as §1, §2, §3, §4

[4] = system: promastigote stage of L. donovani; experiment: Antileishmanial Alamar blue fluorometric assay; settings: Leishmania donovani, read-out: Antileshmanial activity IC50 (μg/ml)
Experimental: as §1, §2, §3, §4

SMILES: O=C(CCCCCCC(=O)Nc1ccccc1)NO [SAHA, suberoylanilide hydroxamic acid, reference compound]
- IC50 [1]: 1.2 µg/mL (≈ 4.54 µM)
- IC50 [2]: 0.47 µg/mL (≈ 1.78 µM)
- IC50 [3]: 0.25 µg/mL (≈ 0.946 µM)
- IC50 [4]: 22 µg/mL (≈ 83.2 µM)
